Laboratory results reported in publication doi:10.1101/2020.03.04.976555.
These are yes or no findings as the source states them, for the method shown.

Target: STK32A kinase domain (residues P9-D390), unphosphorylated (human) (UniProt Q8WU08)
Test: SEC

- binding: no binding
B1: STK32A kinase domain (residues P9-D390), unphosphorylated (enzyme, UniProt Q8WU08-1 9-390)
chain: PPVFDENEDVNFDHFEILRAIGKGSFGKVCIVQKNDTKKMYAMKYMNKQKCVERNEVRNVFKELQIMQGLEHPFLVNLWYSFQDEEDMFMVVDLLLGGDLRYHLQQNVHFKEETVKLFICELVMALDYLQNQRIIHRDMKPDNILLDEHGHVHITDFNIAAMLPRETQITTMAGTKPYMAPEMFSSRKGAGYSFAVDWWSLGVTAYELLRGRRPYHIRSSTSSKEIVHTFETTVVTYPSAWSQEMVSLLKKLLEPNPDQRFSQLSDVQNFPYMNDINWDAVFQKRLIPGFIPNKGRLNCDPTFELEEMILESKPLHKKKKRLAKKEKDMRKCDSSQTCLLQEHLDSVQKEFIIFNREKVNRDFNKRQPNLALEQTKDPQGED
